Some of these results come from one statement about several compounds together.
Each substance was assayed on TAB-K94 antibody (assay: ELISA of Gly/Ala variants of K94p1 peptide antigen (MBP fusion) against TAB-K94 antibody). Details: reactivity to K94p1 peptide antigen set at 100%.
Format: binding, mouse
For “IAPDAHS (Ile-Ala-Pro-Asp-Ala-His-Ser) [S2A]”, the “relative reactivity to TAB-K94 antibody” value was ≥ 70%. “ISADAHS (Ile-Ser-Ala-Asp-Ala-His-Ser) [P3A]” was tested, and the “relative reactivity to TAB-K94 antibody” value was ≤ 50%. With “ISPDAAS (Ile-Ser-Pro-Asp-Ala-Ala-Ser) [H6A]” the “relative reactivity to TAB-K94 antibody” value was ≤ 50%. For “ISPDAHA (Ile-Ser-Pro-Asp-Ala-His-Ala) [S7A]”, the “relative reactivity to TAB-K94 antibody” value was ≥ 70%. “ISPGAHS (Ile-Ser-Pro-Gly-Ala-His-Ser) [D4G]” was tested, and the “relative reactivity to TAB-K94 antibody” value was ≤ 50%.
